Assay results taken from patent publication US20060240474A1, “Peptides able to switch between two structural states and their use” (UNIVERSITY OF SUSSEX, priority 2002, published 2006).

Experiment: Sedimentation equilibrium analytical ultracentrifugation (monomer-dimer equilibrium)
Type: physicochemical
Settings: for MW in solution (95% confidence limits): 5° C., pH 7, fit assuming a single ideal species; for oligomer state by sedimentation equilibrium analysis: pH 7, 5° C.
Procedure: Sedimentation equilibrium experiments were conducted at 5° C. in a Beckman-Optima XL-I analytical ultracentrifuge fitted with an An-60 Ti rotor. A […] peptide solution at […] in 25 mM K phosphate buffer pH 7 containing 0.1 M KCl was equilibrated for 48 h at speeds of 40 000, 47 500/50 000 and 55 000/60 000 rpm. […] The molecular weights (Table 2) and partial specific volumes (range 0.7417 to 0.7461) of the peptides were calculated from their amino-acid sequences, and the viscosity of the buffer at 5° C. was taken to be […].

Compound	MW in solution (95% confidence limits)	oligomer state by sedimentation equilibrium analysis	also measured
CC[C@H](C)[C@@H]1NC(=O)[C@H](CCCCN)NC(=O)[C@H](CCC(N)=O)NC(=O)[C@H](CCC(=O)O)NC(=O)[C@H](CC(C)C)NC(=O)[C@H](C)NC(=O)[C@H](CCCNC(=N)N)NC(=O)[C@H]([C@@H](C)CC)NC(=O)[C@H](CCCCN)NC(=O)[C@H](C)NC(=O)[C@H](CCC(N)=O)NC(=O)[C@H](CCCCN)NC(=O)[C@H](C)NC(=O)[C@H](CCC(N)=O)NC(=O)[C@H](CCCCN)NC(=O)[C@H](CC(C)C)NC(=O)[C@H](CCCNC(=N)N)NC(=O)[C@H](C)NC(=O)[C@H]([C@@H](C)CC)NC(=O)[C@H](CCC(=O)O)NC(=O)[C@H](Cc2ccc(O)cc2)NC(=O)[C@H](CCCCN)NC(=O)[C@H](CC(C)C)NC(=O)[C@H](C)NC(=O)[C@H](CCCNC(=N)N)NC(=O)[C@H]([C@@H](C)CC)NC(=O)[C@H](CCC(=O)O)NC(=O)CNC(=O)CNC(=O)[C@@H](N)CSSC[C@@H](C(=O)O)NC(=O)CNC(=O)CNC(=O)[C@H](CCC(=O)O)NC(=O)[C@H](CC(C)C)NC(=O)[C@H](C)NC(=O)[C@H](C)NC1=O [CSP-3o] (H-CGGEIRALKYEIARLKQAKQAKIRALEQKIAALEGGC-OH; disulfide 1-37; N-terminus and C-terminus assumed)	3522 (3308, 3731) Da	monomeric	–
CGGEIRALKYEIARLKQ----KKRALEQKIAALEGGC [CSP-1o]	–	monomeric	–
CGGEIRALKYEIARLKQ----KKRALEQKIAALEGGC [CSP-1r]	6885 (6639, 7127) Da	monomer-dimer equilibrium	–
CGGEIRALKYEIARLKQAAQAKIRALEQKIAALEGGC [CSP-6o]	3810 (3591, 4023) Da	–	–
CGGEIRALKYEIARLKQAAQAKIRALEQKIAALEGGC [CSP-6r]	–	dimeric	MW in solution (95% confidence limits) (listed as CSP-7a): 7148 (6931, 7361) Da
CGGEIRALKYEIARLKQAAQAKKRALEQKIAALEGGC [CSP-7o]	3665 (3535, 3791) Da	–	MW in solution (95% confidence limits) (listed as CSP-8o): 3295 (3137, 3449) Da
CGGEIRALKYEIARLKQAAQAKKRALEQKIAALEGGC [CSP-7r]	–	–	MW in solution (95% confidence limits) (listed as CSP-8a): 5481 (5199, 5755) Da
CGGEIRALKYEIARLKQAKQAEIRALKQEIAALKGGC [CSP-4o]	3811 (3642, 3975) Da	behaved as monomers	–
CGGEIRALKYEIARLKQAKQAEIRALKQEIAALKGGC [CSP-4r]	–	formed helical dimers	MW in solution (95% confidence limits) (listed as CSP-5a): 6949 (6715, 7180) Da
CGGEIRALKYEIARLKQAKQAKIRALEQKIAALEGGC [CSP-3r]	6652 (6372, 6925) Da	monomer-dimer equilibrium	–
CGGEIRALKYEIARLKQGGGGKKRALEQKIAALEGGC [CSP-2o]	3260 (3018, 3495) Da	monomeric species in solution	–
CGGEIRALKYEIARLKQGGGGKKRALEQKIAALEGGC [CSP-2r]	–	molecular weight close to that expected for monomer	MW in solution (95% confidence limits) (listed as CSP-4a): 3901 (3708, 4088) Da
CGGKIRALEYKIARLEQAKQAKIRALEQKIAALEGGC [CSP-5o]	3768 (3563, 3968) Da	behaved as monomers	–
CGGKIRALEYKIARLEQAKQAKIRALEQKIAALEGGC [CSP-5r]	–	formed helical dimers	MW in solution (95% confidence limits) (listed as CSP-6a): 6819 (6336, 7286) Da

Where a SMILES comes first, the peptide text is derived from it. Bridges are numbered along the chain shown (N, C = ends).
